Experimental data reported in patent publication US20140121213A1, “VOLTAGE-GATED SODIUM CHANNEL BLOCKERS” (priority 2011, published 2014).
Where a name gives a salt, the structure may show the parent alone. Some results were stated once for a whole list of compounds, not compound by compound. At least one structure is not confirmed: it was looked up by name or label, or the drawing left a doubt.

Amino acid sequences for entries named in this document (tags omitted).
UniProt Q9NY46, whole entry: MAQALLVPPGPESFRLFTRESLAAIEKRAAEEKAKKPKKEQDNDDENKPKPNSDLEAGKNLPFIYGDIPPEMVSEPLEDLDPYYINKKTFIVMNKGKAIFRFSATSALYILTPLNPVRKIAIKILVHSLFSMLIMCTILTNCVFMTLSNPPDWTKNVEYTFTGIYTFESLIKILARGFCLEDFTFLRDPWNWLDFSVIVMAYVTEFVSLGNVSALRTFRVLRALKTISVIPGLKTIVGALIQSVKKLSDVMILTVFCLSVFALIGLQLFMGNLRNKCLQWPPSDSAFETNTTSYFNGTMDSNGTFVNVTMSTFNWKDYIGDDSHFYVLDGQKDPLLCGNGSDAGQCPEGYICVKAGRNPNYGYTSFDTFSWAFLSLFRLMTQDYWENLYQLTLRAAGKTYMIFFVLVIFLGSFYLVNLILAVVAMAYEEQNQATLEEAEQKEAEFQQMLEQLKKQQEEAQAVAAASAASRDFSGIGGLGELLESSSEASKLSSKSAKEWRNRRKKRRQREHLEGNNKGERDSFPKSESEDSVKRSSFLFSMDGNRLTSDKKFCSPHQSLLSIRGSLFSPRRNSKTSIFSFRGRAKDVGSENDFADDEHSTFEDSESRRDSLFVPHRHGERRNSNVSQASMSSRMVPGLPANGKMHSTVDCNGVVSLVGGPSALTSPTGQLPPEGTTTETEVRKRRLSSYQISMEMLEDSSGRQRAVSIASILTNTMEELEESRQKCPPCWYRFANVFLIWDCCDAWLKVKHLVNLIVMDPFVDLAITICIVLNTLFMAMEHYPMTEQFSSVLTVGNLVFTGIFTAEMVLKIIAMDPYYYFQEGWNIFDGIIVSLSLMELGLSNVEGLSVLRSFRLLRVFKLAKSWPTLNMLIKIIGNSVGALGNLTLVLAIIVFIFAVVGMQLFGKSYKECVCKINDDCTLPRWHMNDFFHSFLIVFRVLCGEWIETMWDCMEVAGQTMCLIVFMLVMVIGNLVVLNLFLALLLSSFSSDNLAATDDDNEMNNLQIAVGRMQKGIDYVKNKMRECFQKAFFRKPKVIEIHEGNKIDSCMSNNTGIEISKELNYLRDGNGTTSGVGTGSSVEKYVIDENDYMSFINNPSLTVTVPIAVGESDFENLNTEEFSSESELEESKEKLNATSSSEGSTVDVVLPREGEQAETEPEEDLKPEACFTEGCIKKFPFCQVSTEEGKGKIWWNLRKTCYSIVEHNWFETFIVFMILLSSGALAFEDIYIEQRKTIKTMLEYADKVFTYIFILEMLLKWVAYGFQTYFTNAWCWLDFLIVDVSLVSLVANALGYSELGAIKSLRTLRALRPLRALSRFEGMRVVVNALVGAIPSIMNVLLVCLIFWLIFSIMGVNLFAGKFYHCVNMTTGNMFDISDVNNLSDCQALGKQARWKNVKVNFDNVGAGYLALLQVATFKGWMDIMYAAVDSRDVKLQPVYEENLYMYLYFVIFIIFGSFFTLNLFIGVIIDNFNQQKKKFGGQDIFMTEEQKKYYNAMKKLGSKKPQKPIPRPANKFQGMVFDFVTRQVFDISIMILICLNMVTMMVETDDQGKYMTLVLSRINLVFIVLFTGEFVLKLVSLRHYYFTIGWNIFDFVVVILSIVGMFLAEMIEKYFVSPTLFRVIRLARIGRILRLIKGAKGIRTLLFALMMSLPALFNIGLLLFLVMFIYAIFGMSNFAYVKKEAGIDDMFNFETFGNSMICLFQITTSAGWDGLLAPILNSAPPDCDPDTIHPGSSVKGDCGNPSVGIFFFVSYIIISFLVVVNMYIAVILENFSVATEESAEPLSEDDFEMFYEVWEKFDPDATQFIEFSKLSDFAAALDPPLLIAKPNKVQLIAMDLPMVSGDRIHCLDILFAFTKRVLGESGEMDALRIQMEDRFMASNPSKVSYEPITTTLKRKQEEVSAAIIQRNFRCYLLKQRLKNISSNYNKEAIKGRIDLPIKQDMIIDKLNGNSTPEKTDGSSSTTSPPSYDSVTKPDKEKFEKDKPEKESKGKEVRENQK
UniProt Q15858, whole entry: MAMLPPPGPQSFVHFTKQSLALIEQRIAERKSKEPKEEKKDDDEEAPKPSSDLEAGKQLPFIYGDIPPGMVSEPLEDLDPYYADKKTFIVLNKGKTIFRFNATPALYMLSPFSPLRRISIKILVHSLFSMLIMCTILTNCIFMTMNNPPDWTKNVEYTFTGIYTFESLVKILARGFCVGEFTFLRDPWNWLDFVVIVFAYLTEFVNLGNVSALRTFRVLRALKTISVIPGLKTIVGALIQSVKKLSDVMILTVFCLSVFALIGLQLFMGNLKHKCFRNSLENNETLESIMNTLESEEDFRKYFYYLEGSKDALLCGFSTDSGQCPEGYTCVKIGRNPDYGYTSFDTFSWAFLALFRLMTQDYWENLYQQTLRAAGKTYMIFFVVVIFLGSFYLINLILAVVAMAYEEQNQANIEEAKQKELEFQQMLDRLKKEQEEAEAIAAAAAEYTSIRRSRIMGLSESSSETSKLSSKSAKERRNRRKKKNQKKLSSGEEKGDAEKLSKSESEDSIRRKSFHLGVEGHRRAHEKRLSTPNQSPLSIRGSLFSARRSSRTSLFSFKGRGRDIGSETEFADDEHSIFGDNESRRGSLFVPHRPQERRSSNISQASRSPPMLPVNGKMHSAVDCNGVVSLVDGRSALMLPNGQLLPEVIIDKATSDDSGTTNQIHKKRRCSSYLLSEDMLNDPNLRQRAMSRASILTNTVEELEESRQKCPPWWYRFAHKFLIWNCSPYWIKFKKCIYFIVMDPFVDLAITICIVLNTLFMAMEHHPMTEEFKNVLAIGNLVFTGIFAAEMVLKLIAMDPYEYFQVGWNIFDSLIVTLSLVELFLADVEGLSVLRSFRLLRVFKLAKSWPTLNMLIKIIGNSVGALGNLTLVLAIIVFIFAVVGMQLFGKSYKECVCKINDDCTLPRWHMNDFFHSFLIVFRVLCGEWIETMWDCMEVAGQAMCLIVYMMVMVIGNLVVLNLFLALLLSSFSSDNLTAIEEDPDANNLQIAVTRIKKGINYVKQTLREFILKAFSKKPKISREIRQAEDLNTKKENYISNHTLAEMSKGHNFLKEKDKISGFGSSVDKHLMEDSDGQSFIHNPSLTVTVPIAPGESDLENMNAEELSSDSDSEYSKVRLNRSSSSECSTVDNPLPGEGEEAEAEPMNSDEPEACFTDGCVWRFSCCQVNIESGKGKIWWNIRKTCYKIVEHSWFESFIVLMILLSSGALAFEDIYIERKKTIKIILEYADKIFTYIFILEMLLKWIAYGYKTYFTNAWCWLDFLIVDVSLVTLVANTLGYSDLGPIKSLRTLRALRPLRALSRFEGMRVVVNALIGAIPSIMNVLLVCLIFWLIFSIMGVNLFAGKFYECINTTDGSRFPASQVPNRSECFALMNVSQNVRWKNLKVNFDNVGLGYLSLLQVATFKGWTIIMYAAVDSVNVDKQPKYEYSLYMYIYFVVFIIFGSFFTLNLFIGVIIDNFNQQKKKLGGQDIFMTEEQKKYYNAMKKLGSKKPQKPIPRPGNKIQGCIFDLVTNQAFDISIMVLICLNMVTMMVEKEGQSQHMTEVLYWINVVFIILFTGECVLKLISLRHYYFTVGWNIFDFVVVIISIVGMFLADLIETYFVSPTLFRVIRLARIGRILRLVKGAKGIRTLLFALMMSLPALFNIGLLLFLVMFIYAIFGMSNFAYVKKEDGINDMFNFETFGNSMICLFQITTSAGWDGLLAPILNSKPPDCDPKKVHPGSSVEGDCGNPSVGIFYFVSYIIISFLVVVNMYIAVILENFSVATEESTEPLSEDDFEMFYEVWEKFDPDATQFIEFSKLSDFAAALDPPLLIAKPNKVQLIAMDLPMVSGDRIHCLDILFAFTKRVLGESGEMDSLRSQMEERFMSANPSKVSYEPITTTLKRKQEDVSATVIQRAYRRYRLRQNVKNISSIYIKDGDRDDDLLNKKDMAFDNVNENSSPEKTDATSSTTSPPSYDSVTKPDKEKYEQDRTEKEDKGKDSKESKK

What was measured:
hNaV1.3 channels = target: T1, hNaV1.3 channels (Homo sapiens, UniProt Q9NY46); assay: Use-dependent inhibition of NaV1.3 currents, IonWorks Quattro planar array electrophysiology; assay type: cell-based; conditions: use-dependent; concentration producing 15% inhibition, 10th versus 1st depolarizing pulse, 10 Hz
T1 construct: expressed in transfected cells

NaV 1.7 = NaV 1.7 (Homo sapiens, UniProt Q15858); assay: Use-dependent inhibition of NaV1.7 currents, IonWorks Quattro planar array electrophysiology; assay type: cell-based; conditions: use-dependent; concentration producing 15% inhibition, 10th versus 1st depolarizing pulse, 10 Hz

| Structure (SMILES) | pUD15 against NaV1.3 (hNaV1.3 channels) | pUD15 against NaV1.7 (NaV 1.7) |
| --- | --- | --- |
| Cc1ccc(COc2ccc(CN3CCN(c4ncccc4C(=O)OC(C)C)CC3)cc2)cc1 [Example 443] | 5-5.99 | 4-4.99 |
| Cc1ccc(COc2ccc(CN3CCN(c4ncccc4C(=O)OC(C)C)CC3)cc2)c(C)c1 [Example 446] | 4-4.99 | 5-5.99 |
| CC(C)OC(=O)c1cccnc1N1CCN(Cc2ccc(OCc3cc(Cl)cc(Cl)c3)cc2)CC1 [Example 451] | 4-4.99 | 5-5.99 |
| Cc1ccccc1COc1ccc(CN2CCN(c3ncccc3C(=O)OC(C)C)CC2)cc1 [Example 456] | 4-4.99 | 4-4.99 |
| CC(C)OC(=O)c1cccnc1N1CCN(Cc2ccc(OCc3ccc(C(C)C)cc3)cc2)CC1 [Example 457] | 4-4.99 | 4-4.99 |
| COc1ccc(OC)c(COc2ccc(CN3CCN(c4ncccc4C(=O)OC(C)C)CC3)cc2)c1 [Example 459] | 5-5.99 | 4-4.99 |
| CC(C)OC(=O)c1cccnc1N1CCN(Cc2ccc(CN3CCN(Cc4ccccn4)CC3)cc2)CC1 [Example 465] | 5-5.99 | 5-5.99 |
| CCN(Cc1ccc(CN2CCN(c3ncccc3C(=O)OC(C)C)CC2)cc1)Cc1c(F)cccc1Cl [Example 474, 1-Methylethyl 2-{4-[(4-{[[(2-chloro-6-fluorophenyl)methyl](ethyl)amino]methyl}phenyl)methyl]-1-piperazinyl}-3-pyridinecarboxylate] | 5-5.99 | 5-5.99 |
| CCN(Cc1ccc(CN2CCN(c3ncccc3C(=O)OC(C)C)CC2)cc1)Cc1cccc(C(=O)OC(C)C)c1 [Example 480, 1-methylethyl 2-(4-{[4-({ethyl[(3-{[(1-methylethyl)oxy]carbonyl}phenyl)methyl]amino}methyl)phenyl]methyl}-1-piperazinyl)-3-pyridinecarboxylate dihydrochloride] | 5-5.99 | 4-4.99 |
| CCN(Cc1ccc(CN2CCN(c3ncccc3C(=O)OC(C)C)CC2)cc1)Cc1ccc(C(=O)OC(C)C)cc1 [Example 481, 1-methylethyl 2-(4-{[4-({ethyl[(4-{[(1-methylethyl)oxy]carbonyl}phenyl)methyl]amino}methyl)phenyl]methyl}-1-piperazinyl)-3-pyridinecarboxylate] | 5-5.99 | 5-5.99 |
| CC(C)OC(=O)c1cccnc1N1CCN(Cc2ccc(S(=O)(=O)N(C)C)cc2)CC1.Cl [Example 484, 1-methylethyl 2-[4-({4-[(dimethylamino)sulfonyl]phenyl}methyl)-1-piperazinyl]-3-pyridinecarboxylate] | 4-4.99 | 4-4.99 |
| CCN(Cc1ccc(CN2CCN(c3ncccc3C(=O)OC(C)C)CC2)cc1)Cc1c(Cl)cccc1Cl [Example 495, 1-methylethyl 2-{4-[(4-{[[(2,6-dichlorophenyl)methyl](ethyl)amino]methyl}phenyl)methyl]-1-piperazinyl}-3-pyridinecarboxylate] | 5-5.99 | 4-4.99 |
| CCN(Cc1ccc(CN2CCN(c3ncccc3C(=O)OC(C)C)CC2)cc1)Cc1cccc(Cl)c1 [Example 496, 1-methylethyl 2-{4-[(4-{[[(3-chlorophenyl)methyl](ethyl)amino]methyl}phenyl)methyl]-1-piperazinyl}-3-pyridinecarboxylate] | 5-5.99 | 5-5.99 |
| CCN(Cc1ccc(CN2CCN(c3ncccc3COC(=O)CC(C)(C)C)CC2)cc1)Cc1c(F)cccc1Cl [Example 506, (2-{4-[(4-{[[(2-chloro-6-fluorophenyl)methyl](ethyl)amino]methyl}phenyl)methyl]-1-piperazinyl}-3-pyridinyl)methyl 33-dimethylbutanoate] | 5-5.99 | 4-4.99 |
| CCN(Cc1ccc(CN2CCN(c3ncccc3COC(=O)C(C)C)CC2)cc1)Cc1c(F)cccc1Cl [Example 507, (2-{4-[(4-{[[(2-chloro-6-fluorophenyl)methyl](ethyl)amino]methyl}phenyl)methyl]-1-piperazinyl}-3-pyridinyl)methyl 2-methylpropanoate] | 5-5.99 | 5-5.99 |
| CCN(Cc1cnc(CN2CCN(c3ncccc3C(=O)OC(C)C)CC2)cn1)Cc1c(F)cccc1Cl [Example 509, 1-methylethyl 2-{4-[(5-{[[(2-chloro-6-fluorophenyl)methyl](ethyl)amino]methyl}-2-pyrazinyl)methyl]-1-piperazinyl}-3-pyridinecarboxylate] | 5-5.99 | 5-5.99 |
| CCN(Cc1cccc(CN2CCN(c3ncccc3C(=O)OC(C)C)CC2)c1)Cc1c(F)cccc1Cl [Example 512, 1-methylethyl 2-{4-[(3-{[[(2-chloro-6-fluorophenyl)methyl](ethyl)amino]methyl}phenyl)methyl]-1-piperazinyl}-3-pyridinecarboxylate] | 5-5.99 | 4-4.99 |
| CC(C)OC(=O)c1cccnc1N1CCN(Cc2ccc(CNC(=O)c3ccccc3)cc2)CC1 [Example 525, 1-methylethyl 2-{4-[(4-{[(phenylcarbonyl)amino]methyl}phenyl)methyl]-1-piperazinyl}-3-pyridinecarboxylate] | 5-5.99 | 5-5.99 |
| CC(C)OC(=O)c1cccnc1N1CCN(Cc2ccc(COCc3c(F)cccc3Cl)cc2)CC1 [Example 526, 1-methylethyl2-(4-{[4-({[(2-chloro-6-fluorophenyl)methyl]oxy}methyl)phenyl]methyl}-1-piperazinyl)-3-pyridinecarboxylate] | 5-5.99 | 4-4.99 |
| CCN(Cc1ccc(CN(CC)[C@@H]2CCN(c3ncccc3C(=O)OC(C)C)C2)cc1)[C@@H]1CCN(c2ncccc2C(=O)OC(C)C)C1 [Example 529, Bis(1-methylethyl) 2,2′-{benzene-1,4-diylbis[methanediyl(ethylimino) (3R)-3,1-pyrrolidinediyl]}di(3-pyridinecarboxylate)] | 5-5.99 | 4-4.99 |
| CCN(Cc1ccc(CN(CC)[C@@H]2CCN(c3ncccc3COC(=O)CC(C)(C)C)C2)cc1)[C@@H]1CCN(c2ncccc2COC(=O)CC(C)(C)C)C1 [Example 533, Benzene-1,4-diylbis[methanediyl(ethylimino)(3R)-3,1-pyrrolidinediyl-2,3-pyridinediylmethanediyl]bis(3,3-dimethylbutanoate) hydrochloride] | 4-4.99 | 4-4.99 |
| CCN(Cc1ccc(CN(CC)[C@@H]2CCN(c3ncccc3COC(=O)c3ccccc3)C2)cc1)[C@@H]1CCN(c2ncccc2COC(=O)c2ccccc2)C1 [Example 534, Benzene-1,4-diylbis[methanediyl(ethylimino)(3R)-3,1-pyrrolidinediyl-2,3-pyridinediylmethanediyl]dibenzoate hydrochloride] | 4-4.99 | 4-4.99 |
| CCN(Cc1ccc(CN2CCN(c3ncccc3C(=O)OC(C)C)CC2)cc1)Cc1ccc(CN2CCN(c3ncccc3C(=O)OC(C)C)CC2)cc1 [Example 538, Bis(1-methylethyl)2,2′-[(ethylimino)bis(methanediylbenzene-4,1-diylmethanediyl-4,1-piperazinediyl)]di(3-pyridinecarboxylate)] | 4-4.99 | 5-5.99 |
| CCN(Cc1ccc(C[N+](CC)(CC)[C@@H]2CCN(c3ncccc3C(=O)OC(C)C)C2)cc1)[C@@H]1CCN(c2ncccc2C(=O)OC(C)C)C1 [Example 539, (3R)—N, N-diethyl-N-{[4-({ethyl [(3R)-1-(3-{[(1-methylethyl)oxy]carbonyl}-2-pyridinyl)-3-pyrrolidinyl]amino}methyl)phenyl]methyl}-1-(3-{[(1-methylethyl)oxy]carbonyl}-2-pyridinyl)-3-pyrrolidinaminium] | 4-4.99 | 4-4.99 |
| CCN(Cc1cnc(CN(CC)[C@@H]2CCN(c3ncccc3COC(=O)CC(C)(C)C)C2)cn1)[C@@H]1CCN(c2ncccc2COC(=O)CC(C)(C)C)C1 [Example 541, 2,5-pyrazinediylbis[methanediyl(ethylimino)(3R)-3,1-pyrrolidinediyl-2,3-pyridinediylmethanediyl]bis(3,3-dimethylbutanoate) hydrochloride] | 5-5.99 | 5-5.99 |
